These are yes or no findings as the source states them, for the method shown.
Target: T1, core TOM complex (monomeric unit: Tom40, Tom22, Tom5, Tom6, Tom7) (S. cerevisiae) (UniProt P23644+P49334+P80967+P33448+P53507)
T1 sequence 1: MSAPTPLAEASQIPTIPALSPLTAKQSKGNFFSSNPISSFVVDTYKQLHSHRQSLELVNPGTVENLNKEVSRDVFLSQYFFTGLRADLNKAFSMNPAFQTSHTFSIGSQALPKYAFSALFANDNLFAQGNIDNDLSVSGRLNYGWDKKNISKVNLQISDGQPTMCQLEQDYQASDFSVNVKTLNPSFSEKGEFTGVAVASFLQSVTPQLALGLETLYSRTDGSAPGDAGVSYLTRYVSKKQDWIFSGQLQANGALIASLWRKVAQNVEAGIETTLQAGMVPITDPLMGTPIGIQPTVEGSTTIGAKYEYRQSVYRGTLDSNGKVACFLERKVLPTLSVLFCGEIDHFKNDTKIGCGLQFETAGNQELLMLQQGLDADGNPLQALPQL
T1 sequence 2: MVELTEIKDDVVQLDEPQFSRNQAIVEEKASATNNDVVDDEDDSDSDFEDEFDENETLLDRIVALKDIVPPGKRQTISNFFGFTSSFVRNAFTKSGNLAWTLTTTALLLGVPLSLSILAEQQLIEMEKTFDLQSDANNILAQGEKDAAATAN
T1 sequence 3: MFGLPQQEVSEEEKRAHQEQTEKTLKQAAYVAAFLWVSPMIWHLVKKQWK
T1 sequence 4: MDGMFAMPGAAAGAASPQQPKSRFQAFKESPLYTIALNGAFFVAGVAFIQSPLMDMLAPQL
T1 sequence 5: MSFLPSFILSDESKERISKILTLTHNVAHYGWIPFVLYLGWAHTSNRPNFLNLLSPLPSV
Experiment: tandem affinity purification

Sequences of proteins named here, by UniProt entry; tags and fusion partners are left off.
UniProt P35180, whole entry: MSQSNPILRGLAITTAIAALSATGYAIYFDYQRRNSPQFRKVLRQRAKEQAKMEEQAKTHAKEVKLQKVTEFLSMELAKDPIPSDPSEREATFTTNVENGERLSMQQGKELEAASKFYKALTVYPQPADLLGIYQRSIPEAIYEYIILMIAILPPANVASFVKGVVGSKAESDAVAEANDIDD

## Tom20 (from UniProt P35180 1-183)
  binding: no binding

Source: article doi:10.1101/798371 (bioRxiv, 2019)
